Assay results reported in US9095589B2, “Chirally pure isomers of itraconazole for use as angiogenesis inhibitors” (Johns Hopkins University, priority 2007, dated 2015).
For at least one compound, name, drawing or mass did not settle the structure.

Assays:
BAEC = BAEC proliferation with or without free cholesterol ([3H]-thymidine); type: cell-based, bovine
Procedure: BAEC were incubated in DMEM, 10% lipoprotein deficient serum (LPDS) with indicated concentrations of itraconazole (a) azalanstat (b) or TNP-470 (c) either alone or in combination with 40 μg/ml free cholesterol for 36 h. Cells were then pulsed with 1 μCi [^3H]-thymidine for 8 h before they are harvested for scintillation counting.
HUVEC were purchased from Cambrex Biosciences (Walkersvilie, Md.) and maintained in EGM-2 media (Cambrex) which contains VEGF, bFGF, and EGF. LPDS were purchased from Intracell. BAEC and Hela cells were maintained in DMEM media containing 10% FBS. Jurkat cells were maintained in RPMI media containing 10% FBS. In a typical experiment 5,000-10,000 cells/well in 0.2 mL EGM-2 media were allowed to adhere for 8 h and then incubated with drug for 36 h. Cells were pulsed with 1 μCi [^3H]-thymidine for 8 h (MP Biomedicals, 6.7 Ci/mmol), and harvested using trypsin onto glass fiber filters (Wallac, Turku, Finland). The readout was performed on a Perkin Elmer MicroBeta plate reader. Cells used were under five passages.
A hallmark of inhibitors of 14DM is that their potencies are dependent on the levels of cholesterol in cell culture medium. Thus, the potencies of both azalanstat and itraconazole in cell culture media either containing or lacking cholesterol was determined.

HUVEC = HUVEC cell cycle analysis (propidium iodide, FACS); type: cell-based, human
Description: To delineate the mechanism of inhibition of endothelial cell proliferation by itraconazole, the effect on the cell cycle progression of HUVEC by fixing and staining cells with propidium iodide followed by FACS analysis was examined.

[1] = tested on: new blood vessel formation in Matrigel plugs; assay: Mouse Matrigel model of angiogenesis; type: in vivo; details: mice, 37.5 mg/kg/day i.p., p=0.01
Jurkat T cells = assay: Jurkat T cell proliferation; type: cell-based; details: compared with endothelial cells
HeLa cells = assay: HeLa cell proliferation; type: cell-based; details: compared with endothelial cells

CCC(C)n1ncn(-c2ccc(N3CCN(c4ccc(OCC5COC(Cn6cncn6)(c6ccc(Cl)cc6Cl)O5)cc4)CC3)cc2)c1=O (racemic) [Itraconazole]
inhibition of proliferation of bovine aortic endothelial cells (BAEC): potently inhibited | effect on HUVEC cell cycle progression (HUVEC): increase of cells in the G1 phase | angiogenesis in Matrigel plugs [1]: significantly inhibited angiogenesis | effect on Jurkat T cells (Jurkat T cells): much less effective | effect on HeLa cells (HeLa cells): much less effective
